This note sets out measurements from patent US20070167360A1.

Protein sequences, listed by entry. Tags and fused reporters are not part of them. Residues count along the entry.
UniProt Q62151, residues 23-340: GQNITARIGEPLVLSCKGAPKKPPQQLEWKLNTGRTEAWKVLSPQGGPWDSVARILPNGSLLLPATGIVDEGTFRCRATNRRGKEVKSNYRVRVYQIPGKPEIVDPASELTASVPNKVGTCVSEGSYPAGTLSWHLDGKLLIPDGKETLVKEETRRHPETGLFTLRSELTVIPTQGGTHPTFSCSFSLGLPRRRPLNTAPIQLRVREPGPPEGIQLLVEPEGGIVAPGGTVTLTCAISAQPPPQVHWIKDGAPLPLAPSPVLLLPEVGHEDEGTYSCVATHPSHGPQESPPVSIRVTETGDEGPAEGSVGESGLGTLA

These are yes or no findings as the source states them, for the method shown. In cells and extracts the contact can be indirect. Some results given as binding are weak or reduced against the parent protein; the word gives no strength.

In experiment [1] the target is T1, S100b (endogenous, in splenic extracts of mice induced to develop EAE) (mouse) (UniProt P50114).
T1 sequence (looked up): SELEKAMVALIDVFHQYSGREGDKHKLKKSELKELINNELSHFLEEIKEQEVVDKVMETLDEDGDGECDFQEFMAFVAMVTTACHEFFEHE
In words: co-immunoprecipitation from splenic extracts with anti-S100b IgG, immunoblot with anti-RAGE IgG. For orientation: Immunoblotting shows a protein as a band on a membrane.

Experiment [2] concerns the target T1, S100b (endogenous, in splenic extracts of mice induced to develop EAE) (mouse). In words: co-immunoprecipitation from splenic extracts (as told in the Discussion).

As to “Murine soluble (s) RAGE (from UniProt Q62151 23-340) (receptor)”, the binding entry in experiment [1] and in experiment [2] was “binds” in each case.
